Source: PubChem BioAssay AID504786 (Drosophila RNAi Screening Center, 2011)
Purpose: 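Positive regulators of HIF-driven reporter output in Drosophila cells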 (primary screen). Cells: Drosophila S2 cells with a stable HIF luciferase reporter. Reagent: long dsRNA against Drosophila genes, about 0.2 µg dsRNA per well of a 384-well plate. Timing: three days of knock-down, then 20 h of DFO before reading. Conditions: desferrioxamine (DFO) at 100 µM, an iron chelator that mimics hypoxia, for 20 h. Measurement: 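HIF reporter luminescence in cells given 100 µM DFO for 20 h, using the mouse ldh-a hypoxia-response element, scored as per-plate z-scores; higher means greater loss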. Direction: z-score: higher = stronger loss of HIF reporter signal.
In all, the deposit lists about 21,000 reagents; shown is an unselected part of those with a known target gene and a result. 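Primary screen; positive scores mean lost reporter signal, so the sign may be inverted from the usual convention.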 Names joined by + are all predicted targets of the reagent.

Gene	amplicon	z-score, replicate 1	z-score, replicate 2	z-score, replicate 3	z-score, replicate 4
CG18507	DRSC01334	-0.1	-0.3		
CG18507	DRSC01914	-0.1	-0.1		
CG17839	DRSC10290	-0.2	0		
CG17839	DRSC10291	-0.4	-0.2		
CG14115	DRSC10118	0.3	-0.2		
hzg	DRSC10549	0.9	0.1		
lectin-30A	DRSC02560	-0.1	0.3		
kmg	DRSC02829	-0.4	-0.2		
a10	DRSC11319	-0.3	-0.2		
CG14354	DRSC14817	-0.3	-0.7		
SerT	DRSC04655	-0.3	-0.7		
CG34253	DRSC09531	-0.4	-0.3		
Torsin	DRSC18570	-0.2	2.1	-0.2	0.1
su(Hw)	DRSC17074	-0.4	-0.8		
so	DRSC07693	0.1	0.3	3.1	2.7
whe	DRSC20537	-0.1	0.4		
Gr61a	DRSC08358	-0.4	-0.6		
Cyp4ac2	DRSC03303	-0.1	-0.7		
CG11109	DRSC11633	-0.2	0		
NetB	DRSC20262	-0.2	-0.1		
lncRNA:CR32661	DRSC19794	0	0.3		
SiaT	DRSC04494	0	-0.7		
Rpn1	DRSC11274	5.8	5		
pcm	DRSC20361	0	-0.1		
CG4497	DRSC02754	-0.3	-0.7		
CG30098	DRSC05605	0.2	-0.2		
CG13982	DRSC02314	-0.4	-0.2		
kl-3 (retired record)	DRSC20730	0.2	-0.1		
kl-3 (retired record)	DRSC20891	-0.2	-0.5		
kl-3 (retired record)	DRSC20934	0.4	-0.1		
GlcAT-S	DRSC02731	-0.2	-0.4		
GAA1	DRSC18267	-0.3	0		
yellow-e3	DRSC15170	-0.3	-0.5		
ppk6	DRSC06062	-0.1	0.1		
Atg18b	DRSC03108	-0.1	0.2		
Naglu	DRSC02267	-0.2	-0.5		
CG5541	DRSC19946	-0.2	-0.8		
inv	DRSC07633	0	0		
Or83a	DRSC12357	-0.2	0.5		
IFT57	DRSC00720	-0.3	-0.2		
CG12009	DRSC08217	-0.2	0		
CG17991	DRSC15294	0.2	0.4		
Rab9Fb	DRSC19854	-0.3	0		
CG32271	DRSC08198	-0.2	0.1		
GNBP-like3	DRSC06385	-0.2	0.2		
Swip-1	DRSC02083	-0.2	0.1		
Swip-1	DRSC02084	-0.2	-0.2		
His2Av	DRSC16702	0	-0.2		
Hsdl2	DRSC15839	-0.3	-0.4		
CG12964	DRSC06266	0	0.3		
CG40341 (retired record)	DRSC01767	-0.4	0.1		
CG40341 (retired record)	DRSC03750	-0.5	-0.3		
CG10864	DRSC14273	-0.3	-0.3		
AdoR	DRSC16556	4.3	2.2		
HDAC6	DRSC20252	-0.3	-0.3		
toc	DRSC00169	-0.4	-0.3		
toc	DRSC00171	-0.3	-0.5		
toc	DRSC00842	-0.2	-0.5		
Unc-115b + p24-2 + Unc-115a	DRSC16502	-0.2	-0.4		
RNaseX25	DRSC11259	-0.3	-0.5		
Nep3	DRSC20685	-0.1	0.1		
CG10512	DRSC11615	-0.2	-0.2		
CG5953	DRSC01546	1.9	0.2		
CG5953	DRSC02914	-0.2	1.4		
Lamtor5	DRSC18491	-0.3	-0.9		
CG13177	DRSC06303	0	0.4		
Ran	DRSC20364	5.8	4.2		
CG9389	DRSC11857	-0.1	-0.1		
out	DRSC19347	-0.4	-0.5		
Eig71Eg	DRSC11154	-0.2	-0.5		
Erk7	DRSC18127	-0.4	-0.5		
Erk7	DRSC18227	-0.2	0.1		
obst-I	DRSC08339	-0.3	-0.3		
ric8a	DRSC18093	-0.3	0		
Stim	DRSC20158	-0.4	0.8		
mRpL51	DRSC02200	1.5	0.3		
Pk34A	DRSC03398	-0.3	-0.4		
ppl	DRSC11899	-0.1	-0.3		
kz	DRSC18786	0.4	2.2		
CG17145	DRSC10247	-0.2	-0.4		
ox	DRSC07520	0.9	1.9		
Exo70	DRSC10774	-0.4	-0.3		
vtd	DRSC20839	0.1	-0.2		
CngA	DRSC06580	-0.1	-0.3		
CngA	DRSC07362	-0.3	-0.4		
CG4286	DRSC04459	0.1	0.2		
Adi1	DRSC10945	-0.2	-0.2		
MED7	DRSC16059	0.6	1.2		
Mur2B	DRSC18545	-0.3	-0.1		
Mur2B	DRSC18546	0.6	-0.1		
CG15140	DRSC02440	-0.3	-0.4		
CG3494	DRSC04375	-0.3	-0.2		
CG15147	DRSC02447	-0.2	-0.3	-0.8	-0.1
CG15147	DRSC02448	-0.2	-0.1		
Fbp1	DRSC11166	0.3	0.4		
RhoGDI	DRSC10919	-0.3	-0.5		
CG30356	DRSC05119	-0.2	-0.3		
Klp59C	DRSC04348	-0.4	-1		
CG16798	DRSC02517	-0.4	-0.3		
CG31624	DRSC02617	0.1	-0.3		
Ms	DRSC16041	-0.2	-0.3		
CG9360	DRSC20180	-0.1	0.1		
Vsx2	DRSC17397	-0.5	-0.3	-0.3	-0.1
Vsx2	DRSC18087	-0.4	0		
Vsx2	DRSC18088	-0.3	-0.3	-0.7	0
Vsx2	DRSC18089	-0.3	-0.5	2.9	0.8

Not a retest: an excerpt of the list.
Gene	amplicon	z-score, replicate 1	z-score, replicate 2	z-score, replicate 3	z-score, replicate 4
CG15147	DRSC02448	-0.2	-0.1		
Fbp1	DRSC11166	0.3	0.4		
RhoGDI	DRSC10919	-0.3	-0.5		
CG30356	DRSC05119	-0.2	-0.3		
Klp59C	DRSC04348	-0.4	-1		
CG16798	DRSC02517	-0.4	-0.3		
CG31624	DRSC02617	0.1	-0.3		
Ms	DRSC16041	-0.2	-0.3		
CG9360	DRSC20180	-0.1	0.1		
Vsx2	DRSC17397	-0.5	-0.3	-0.3	-0.1
